One assay addresses T1, TRIB1-tGFP (human) (UniProt Q96RU8).
T1 sequence: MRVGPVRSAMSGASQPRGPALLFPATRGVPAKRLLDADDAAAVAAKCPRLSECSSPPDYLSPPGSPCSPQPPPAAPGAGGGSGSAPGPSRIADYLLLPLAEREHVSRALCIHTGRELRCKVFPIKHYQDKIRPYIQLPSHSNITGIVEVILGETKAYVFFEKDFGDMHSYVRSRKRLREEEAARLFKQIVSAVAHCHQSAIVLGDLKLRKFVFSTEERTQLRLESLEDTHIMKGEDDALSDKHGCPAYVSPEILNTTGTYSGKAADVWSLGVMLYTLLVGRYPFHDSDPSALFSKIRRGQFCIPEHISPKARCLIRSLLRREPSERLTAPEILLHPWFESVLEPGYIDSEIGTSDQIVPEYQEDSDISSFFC
The experiment in a line: affinity purification with mass spectrometry; tGFP-fusion bait from lysate of stable MCF7 cells induced with 2 μg/mL doxycycline for 24 h, on turboGFP-Trap beads; LC-MS, label-free, against tGFP control.

Amino acid sequences for entries named in this document (tags omitted). A change or cut given only in a name is not applied to a line headed by its entry.
UniProt Q96RU7: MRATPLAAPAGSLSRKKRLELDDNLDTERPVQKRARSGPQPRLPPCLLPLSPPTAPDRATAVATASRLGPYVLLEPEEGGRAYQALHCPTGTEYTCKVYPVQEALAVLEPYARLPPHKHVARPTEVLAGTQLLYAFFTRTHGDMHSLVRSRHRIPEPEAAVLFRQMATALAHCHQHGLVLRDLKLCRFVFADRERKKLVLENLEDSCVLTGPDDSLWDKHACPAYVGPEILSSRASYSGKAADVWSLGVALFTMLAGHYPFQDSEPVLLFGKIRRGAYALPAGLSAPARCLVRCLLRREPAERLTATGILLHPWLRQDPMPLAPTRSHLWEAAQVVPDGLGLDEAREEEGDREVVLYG
UniProt P07737: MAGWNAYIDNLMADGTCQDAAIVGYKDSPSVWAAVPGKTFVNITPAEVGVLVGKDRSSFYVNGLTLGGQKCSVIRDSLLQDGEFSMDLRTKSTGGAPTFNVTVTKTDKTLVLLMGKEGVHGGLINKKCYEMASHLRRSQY
UniProt Q9UBL3: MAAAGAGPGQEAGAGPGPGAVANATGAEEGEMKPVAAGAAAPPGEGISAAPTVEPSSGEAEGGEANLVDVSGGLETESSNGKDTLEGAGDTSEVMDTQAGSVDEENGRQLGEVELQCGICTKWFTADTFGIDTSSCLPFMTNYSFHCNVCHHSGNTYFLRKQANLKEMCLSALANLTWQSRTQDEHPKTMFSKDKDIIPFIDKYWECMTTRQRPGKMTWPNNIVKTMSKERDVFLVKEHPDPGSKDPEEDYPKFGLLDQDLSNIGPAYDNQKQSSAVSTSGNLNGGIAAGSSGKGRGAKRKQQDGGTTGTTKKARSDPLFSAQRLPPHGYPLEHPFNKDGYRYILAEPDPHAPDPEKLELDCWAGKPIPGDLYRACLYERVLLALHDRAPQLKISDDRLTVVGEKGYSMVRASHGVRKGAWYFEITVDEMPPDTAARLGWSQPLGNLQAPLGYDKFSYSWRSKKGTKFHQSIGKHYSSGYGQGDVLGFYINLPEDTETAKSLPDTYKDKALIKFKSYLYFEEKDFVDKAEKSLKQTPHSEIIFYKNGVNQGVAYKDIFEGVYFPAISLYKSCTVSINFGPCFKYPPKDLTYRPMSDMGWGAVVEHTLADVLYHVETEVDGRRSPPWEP
UniProt Q9BRP4: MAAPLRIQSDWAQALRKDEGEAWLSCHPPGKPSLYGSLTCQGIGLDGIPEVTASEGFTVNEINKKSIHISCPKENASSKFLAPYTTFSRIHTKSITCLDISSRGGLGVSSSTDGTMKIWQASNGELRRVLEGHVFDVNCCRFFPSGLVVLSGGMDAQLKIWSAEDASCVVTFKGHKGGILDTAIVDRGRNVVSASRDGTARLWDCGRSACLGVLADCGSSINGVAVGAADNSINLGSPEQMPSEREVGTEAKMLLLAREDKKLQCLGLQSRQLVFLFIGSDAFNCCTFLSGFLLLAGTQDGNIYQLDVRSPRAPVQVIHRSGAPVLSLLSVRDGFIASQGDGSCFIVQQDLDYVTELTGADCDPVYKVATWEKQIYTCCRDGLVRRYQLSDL
UniProt Q16531: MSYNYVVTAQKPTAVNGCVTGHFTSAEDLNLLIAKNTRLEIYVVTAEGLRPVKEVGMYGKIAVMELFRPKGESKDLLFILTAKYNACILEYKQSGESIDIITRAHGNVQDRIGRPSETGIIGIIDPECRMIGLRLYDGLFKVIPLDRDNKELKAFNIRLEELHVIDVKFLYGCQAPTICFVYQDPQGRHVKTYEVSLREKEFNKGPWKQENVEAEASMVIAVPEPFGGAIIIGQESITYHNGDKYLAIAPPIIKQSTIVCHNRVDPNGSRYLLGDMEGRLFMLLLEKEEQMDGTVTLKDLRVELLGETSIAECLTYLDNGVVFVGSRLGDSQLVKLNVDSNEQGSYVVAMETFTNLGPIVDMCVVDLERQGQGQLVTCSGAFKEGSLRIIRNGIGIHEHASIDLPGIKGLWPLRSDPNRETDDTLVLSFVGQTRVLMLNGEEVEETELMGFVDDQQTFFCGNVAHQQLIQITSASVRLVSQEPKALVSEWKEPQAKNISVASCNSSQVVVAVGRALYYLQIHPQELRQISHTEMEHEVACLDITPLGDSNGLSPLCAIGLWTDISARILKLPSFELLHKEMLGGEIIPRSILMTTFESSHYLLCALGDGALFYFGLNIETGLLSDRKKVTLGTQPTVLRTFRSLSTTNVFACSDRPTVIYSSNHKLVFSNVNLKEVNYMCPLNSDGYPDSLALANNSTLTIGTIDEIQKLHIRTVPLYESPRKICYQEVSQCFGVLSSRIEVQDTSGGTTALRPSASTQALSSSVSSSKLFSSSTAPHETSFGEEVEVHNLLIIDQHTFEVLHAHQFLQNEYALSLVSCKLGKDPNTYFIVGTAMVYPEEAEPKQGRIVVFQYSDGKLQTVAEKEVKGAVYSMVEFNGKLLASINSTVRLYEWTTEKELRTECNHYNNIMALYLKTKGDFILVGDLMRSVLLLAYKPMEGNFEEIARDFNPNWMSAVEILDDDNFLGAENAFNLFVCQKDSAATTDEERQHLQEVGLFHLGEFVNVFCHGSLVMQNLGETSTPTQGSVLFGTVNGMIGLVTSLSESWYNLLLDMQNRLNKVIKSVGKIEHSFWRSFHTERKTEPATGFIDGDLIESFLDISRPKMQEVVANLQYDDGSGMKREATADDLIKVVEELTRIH
UniProt P01106: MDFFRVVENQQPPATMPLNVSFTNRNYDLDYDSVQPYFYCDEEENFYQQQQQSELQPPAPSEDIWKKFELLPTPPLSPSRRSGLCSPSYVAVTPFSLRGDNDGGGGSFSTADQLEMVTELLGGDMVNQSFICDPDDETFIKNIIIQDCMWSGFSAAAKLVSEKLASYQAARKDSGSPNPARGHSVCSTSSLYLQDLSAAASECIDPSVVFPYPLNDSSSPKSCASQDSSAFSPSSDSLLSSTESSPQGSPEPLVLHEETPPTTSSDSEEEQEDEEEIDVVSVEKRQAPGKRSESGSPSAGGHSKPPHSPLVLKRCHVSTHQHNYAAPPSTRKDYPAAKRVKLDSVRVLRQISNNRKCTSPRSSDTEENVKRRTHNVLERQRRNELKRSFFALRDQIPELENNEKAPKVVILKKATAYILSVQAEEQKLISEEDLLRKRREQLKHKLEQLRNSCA
UniProt Q99627: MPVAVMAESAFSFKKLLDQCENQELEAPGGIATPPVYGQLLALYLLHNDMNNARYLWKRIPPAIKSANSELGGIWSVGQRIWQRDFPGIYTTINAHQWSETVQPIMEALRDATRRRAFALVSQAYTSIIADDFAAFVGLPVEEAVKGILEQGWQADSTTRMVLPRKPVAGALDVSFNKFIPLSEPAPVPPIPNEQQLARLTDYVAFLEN
UniProt P38936: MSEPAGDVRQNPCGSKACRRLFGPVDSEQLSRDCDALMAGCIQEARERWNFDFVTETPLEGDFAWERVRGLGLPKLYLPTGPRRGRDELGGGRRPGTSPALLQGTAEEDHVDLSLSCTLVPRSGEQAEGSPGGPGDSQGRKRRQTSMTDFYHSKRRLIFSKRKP
UniProt P11586: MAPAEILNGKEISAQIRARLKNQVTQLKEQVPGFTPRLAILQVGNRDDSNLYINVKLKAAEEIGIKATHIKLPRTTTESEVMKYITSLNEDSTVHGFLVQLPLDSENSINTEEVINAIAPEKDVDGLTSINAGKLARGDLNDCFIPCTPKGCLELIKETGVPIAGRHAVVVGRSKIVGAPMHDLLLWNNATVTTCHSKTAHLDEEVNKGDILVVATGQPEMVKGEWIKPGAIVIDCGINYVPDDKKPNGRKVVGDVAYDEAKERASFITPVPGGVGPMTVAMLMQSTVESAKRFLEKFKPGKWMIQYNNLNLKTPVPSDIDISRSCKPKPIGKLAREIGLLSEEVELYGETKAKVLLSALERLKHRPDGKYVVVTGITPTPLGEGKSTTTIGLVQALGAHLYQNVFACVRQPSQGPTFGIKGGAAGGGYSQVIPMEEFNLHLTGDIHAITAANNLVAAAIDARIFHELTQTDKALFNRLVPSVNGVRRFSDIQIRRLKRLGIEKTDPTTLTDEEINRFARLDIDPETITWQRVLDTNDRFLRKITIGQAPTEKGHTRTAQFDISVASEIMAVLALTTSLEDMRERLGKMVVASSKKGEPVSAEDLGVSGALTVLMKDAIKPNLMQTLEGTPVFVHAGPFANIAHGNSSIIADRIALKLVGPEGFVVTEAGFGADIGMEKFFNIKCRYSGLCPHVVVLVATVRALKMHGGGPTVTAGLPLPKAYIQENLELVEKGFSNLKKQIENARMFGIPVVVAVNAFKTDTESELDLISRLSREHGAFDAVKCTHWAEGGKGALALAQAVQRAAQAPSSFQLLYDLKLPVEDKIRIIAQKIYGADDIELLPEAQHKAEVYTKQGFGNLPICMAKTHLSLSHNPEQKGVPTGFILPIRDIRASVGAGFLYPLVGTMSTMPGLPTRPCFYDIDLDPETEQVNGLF
UniProt P25685: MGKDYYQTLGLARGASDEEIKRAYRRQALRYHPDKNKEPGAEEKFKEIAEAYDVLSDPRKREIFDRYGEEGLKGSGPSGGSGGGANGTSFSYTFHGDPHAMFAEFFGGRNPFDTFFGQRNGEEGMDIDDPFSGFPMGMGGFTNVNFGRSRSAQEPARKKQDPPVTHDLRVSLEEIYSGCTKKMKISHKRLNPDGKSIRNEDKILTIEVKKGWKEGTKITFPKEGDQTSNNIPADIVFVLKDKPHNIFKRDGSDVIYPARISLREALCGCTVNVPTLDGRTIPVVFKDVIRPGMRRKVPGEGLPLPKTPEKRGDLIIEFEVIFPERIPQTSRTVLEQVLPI
UniProt P48643: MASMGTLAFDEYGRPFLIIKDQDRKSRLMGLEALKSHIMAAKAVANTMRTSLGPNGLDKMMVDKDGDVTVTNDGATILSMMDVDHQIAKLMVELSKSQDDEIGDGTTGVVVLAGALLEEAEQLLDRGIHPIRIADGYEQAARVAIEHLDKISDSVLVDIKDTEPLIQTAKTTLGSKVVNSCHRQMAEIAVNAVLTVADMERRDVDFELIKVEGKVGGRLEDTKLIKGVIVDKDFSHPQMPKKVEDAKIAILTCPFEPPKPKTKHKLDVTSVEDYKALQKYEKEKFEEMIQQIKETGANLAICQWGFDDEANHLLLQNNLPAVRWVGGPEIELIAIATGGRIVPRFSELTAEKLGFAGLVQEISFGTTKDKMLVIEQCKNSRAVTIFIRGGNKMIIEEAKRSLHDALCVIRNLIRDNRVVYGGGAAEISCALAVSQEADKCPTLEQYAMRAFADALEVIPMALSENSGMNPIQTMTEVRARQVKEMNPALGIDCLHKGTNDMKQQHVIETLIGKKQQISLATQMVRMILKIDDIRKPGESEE
UniProt Q9UBN7: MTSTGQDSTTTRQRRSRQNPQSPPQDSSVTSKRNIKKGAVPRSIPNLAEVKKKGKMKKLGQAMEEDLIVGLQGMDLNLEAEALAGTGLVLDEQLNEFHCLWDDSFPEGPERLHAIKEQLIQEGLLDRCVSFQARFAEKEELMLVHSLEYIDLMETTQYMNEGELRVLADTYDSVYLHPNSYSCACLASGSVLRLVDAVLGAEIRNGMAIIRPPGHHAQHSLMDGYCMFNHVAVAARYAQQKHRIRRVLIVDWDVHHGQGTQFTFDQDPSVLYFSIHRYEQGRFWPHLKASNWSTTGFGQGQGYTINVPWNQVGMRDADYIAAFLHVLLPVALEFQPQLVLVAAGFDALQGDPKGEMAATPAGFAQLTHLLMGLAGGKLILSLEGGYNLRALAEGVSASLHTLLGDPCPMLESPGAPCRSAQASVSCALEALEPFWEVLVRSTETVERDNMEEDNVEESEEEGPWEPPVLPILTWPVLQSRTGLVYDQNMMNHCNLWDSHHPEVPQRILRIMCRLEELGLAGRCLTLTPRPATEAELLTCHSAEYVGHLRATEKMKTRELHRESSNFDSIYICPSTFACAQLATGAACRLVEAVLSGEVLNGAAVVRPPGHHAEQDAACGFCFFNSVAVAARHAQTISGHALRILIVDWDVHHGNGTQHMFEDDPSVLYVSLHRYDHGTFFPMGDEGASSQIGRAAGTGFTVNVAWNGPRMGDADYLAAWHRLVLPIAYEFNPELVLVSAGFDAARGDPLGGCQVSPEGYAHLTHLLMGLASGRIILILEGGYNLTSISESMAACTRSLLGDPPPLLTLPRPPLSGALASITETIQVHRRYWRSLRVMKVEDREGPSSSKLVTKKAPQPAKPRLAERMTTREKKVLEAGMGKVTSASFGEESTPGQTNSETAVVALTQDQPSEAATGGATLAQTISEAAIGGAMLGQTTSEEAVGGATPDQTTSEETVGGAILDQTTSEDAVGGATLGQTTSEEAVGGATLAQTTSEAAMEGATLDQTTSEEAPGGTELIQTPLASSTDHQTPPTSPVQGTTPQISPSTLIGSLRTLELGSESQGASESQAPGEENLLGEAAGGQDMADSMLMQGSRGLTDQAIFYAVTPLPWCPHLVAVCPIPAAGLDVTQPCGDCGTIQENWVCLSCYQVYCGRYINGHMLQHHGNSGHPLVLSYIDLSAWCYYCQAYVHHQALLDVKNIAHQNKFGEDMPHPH

The target in assay [1] is TRIB3-ΔC-terminal (human) (UniProt Q96RU7). The experiment in a line: affinity purification with mass spectrometry; GFP-fusion bait from lysate of transfected HEK293T cells on GFP-Trap beads, 2 h at 4 °C; lysis buffer 50 mM Tris pH 8.0, 1 mM EDTA, 0.1% NP40, 250 mM NaCl, 10% glycerol; on-bead digestion, LC-MS, label-free, against GFP control (or mutant against mutant or wild type).

Assay [2] concerns the target T2, TRIB1 GFP-fusion protein (human) (UniProt Q96RU8).
T2 sequence: T1 sequence
The description is as above.

The target in assay [3] is T3, TRIB2 GFP-fusion protein (human) (UniProt Q92519).
T3 sequence: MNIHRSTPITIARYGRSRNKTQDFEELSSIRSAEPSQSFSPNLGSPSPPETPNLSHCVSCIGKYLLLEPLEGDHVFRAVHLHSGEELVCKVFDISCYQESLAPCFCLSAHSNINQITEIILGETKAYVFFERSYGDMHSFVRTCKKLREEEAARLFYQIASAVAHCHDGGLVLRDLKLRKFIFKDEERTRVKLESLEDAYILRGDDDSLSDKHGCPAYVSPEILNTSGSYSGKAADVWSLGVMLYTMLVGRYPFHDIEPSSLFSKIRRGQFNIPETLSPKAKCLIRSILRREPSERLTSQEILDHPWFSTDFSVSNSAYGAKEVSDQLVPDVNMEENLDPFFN
The description is as above.

No constants are given. Whether binding was seen depends on the method and setting. In cells and extracts the contact can be indirect. A yes stands for co-enrichment or nearness to the bait. Other partners may have been found. For some assays here: Where a sequence is shown, tags or fusion partners need not be part of it.

For Profilin 1 (from UniProt P07737 1-140), in the assay with TRIB1-tGFP (human), the binding entry is recorded as “binds”.

Turning to “Set1/Ash2 Histone Methyltranferase Complex Subunit (from UniProt Q9UBL3 1-628)”, the binding result in assay [1] is “binds”.

Consider “Proteasomal ATPase Associated Factor 1 (from UniProt Q9BRP4 1-392)”, for which the binding entry in the assay with TRIB1-tGFP (human) is “binds”.

In the case of “Stress induced Phosphoprotein 1 (from UniProt P31948 1-543)”, the binding result (in assay [2]; with TRIB1-tGFP (human)) was “binds” throughout.

On to “Damage Specific DNA Binding Protein 1 (from UniProt Q16531 1-1140)”, for which the binding result in assay [2] and in assay [3] was “binds” throughout.

In the case of “MYC Proto-Oncogene (from UniProt P01106 1-454)”, in assay [1], the binding result was “binds”.

As to “COP9 Signalosome Subunit 8 (from UniProt Q99627 1-209)”, the binding entry in assay [1] is “binds”.

For “Cyclin Dependent Kinase Inhibitor 1A (from UniProt P38936 1-164)”, in the assay with TRIB1-tGFP (human), the binding result is “binds”.

Turning to “C-1-tetrahydrofolate synthase (from UniProt P11586 1-935)”, the binding entry in the assay with TRIB1-tGFP (human) is “binds”.

Take “RB Binding Protein 5 (from UniProt Q15291 1-538)”: in assay [1], the binding entry is listed as “binds”.

Consider “DnaJ Heat Shock Protein Family Member B1 (from UniProt P25685 1-340)”, for which, in the assay with TRIB1-tGFP (human), the binding result is “binds”.

Regarding “Dpy-30 Histone Methyltransferase Complex (from UniProt Q9C005 1-99)”, in assay [1], the binding entry is given as “binds”.

As for “T-complex protein 1 subunit epsilon (from UniProt P48643 1-541)”, the binding entry in the assay with TRIB1-tGFP (human) is listed as “binds”.

For “DNA-dependent protein kinase catalytic subunit (from UniProt P78527 1-4128)”, in the assay with TRIB1-tGFP (human), the binding entry is “binds”.

In the case of “Histone Deacetylase 6 (from UniProt Q9UBN7 1-1215)”, the binding result (in assay [2]; with TRIB1-tGFP (human)) was “binds” throughout.

“Cut like Homeobox 1 (from UniProt P39880 1-1505)”: the binding entry with TRIB1-tGFP (human) was “binds”.

B1: TBC1 Domain Family Member 4 (protein, UniProt O60343 1-1298)
chain: MEPPSCIQDEPFPHPLEPEPGVSAQPGPGKPSDKRFRLWYVGGSCLDHRTTLPMLPWLMAEIRRRSQKPEAGGCGAPAAREVILVLSAPFLRCVPAPGAGASGGTSPSATQPNPAVFIFEHKAQHISRFIHNSHDLTYFAYLIKAQPDDPESQMACHVFRATDPSQVPDVISSIRQLSKAAMKEDAKPSKDNEDAFYNSQKFEVLYCGKVTVTHKKAPSSLIDDCMEKFSLHEQQRLKIQGEQRGPDPGEDLADLEVVVPGSPGDCLPEEADGTDTHLGLPAGASQPALTSSRVCFPERILEDSGFDEQQEFRSRCSSVTGVQRRVHEGSQKSQPRRRHASAPSHVQPSDSEKNRTMLFQVGRFEINLISPDTKSVVLEKNFKDISSCSQGIKHVDHFGFICRESPEPGLSQYICYVFQCASESLVDEVMLTLKQAFSTAAALQSAKTQIKLCEACPMHSLHKLCERIEGLYPPRAKLVIQRHLSSLTDNEQADIFERVQKMKPVSDQEENELVILHLRQLCEAKQKTHVHIGEGPSTISNSTIPENATSSGRFKLDILKNKAKRSLTSSLENIFSRGANRMRGRLGSVDSFERSNSLASEKDYSPGDSPPGTPPASPPSSAWQTFPEEDSDSPQFRRRAHTFSHPPSSTKRKLNLQDGRAQGVRSPLLRQSSSEQCSNLSSVRRMYKESNSSSSLPSLHTSFSAPSFTAPSFLKSFYQNSGRLSPQYENEIRQDTASESSDGEGRKRTSSTCSNESLSVGGTSVTPRRISWRQRIFLRVASPMNKSPSAMQQQDGLDRNELLPLSPLSPTMEEEPLVVFLSGEDDPEKIEERKKSKELRSLWRKAIHQQILLLRMEKENQKLEASRDELQSRKVKLDYEEVGACQKEVLITWDKKLLNCRAKIRCDMEDIHTLLKEGVPKSRRGEIWQFLALQYRLRHRLPNKQQPPDISYKELLKQLTAQQHAILVDLGRTFPTHPYFSVQLGPGQLSLFNLLKAYSLLDKEVGYCQGISFVAGVLLLHMSEEQAFEMLKFLMYDLGFRKQYRPDMMSLQIQMYQLSRLLHDYHRDLYNHLEENEISPSLYAAPWFLTLFASQFSLGFVARVFDIIFLQGTEVIFKVALSLLSSQETLIMECESFENIVEFLKNTLPDMNTSEMEKIITQVFEMDISKQLHAYEVEYHVLQDELQESSYSCEDSETLEKLERANSQLKRQNMDLLEKLQVAHTKIQALESNLENLLTRETKMKSLIRTLEQEKMAYQKTVEQLRKLLPADALVNCDLLLRDLNCNPNNKAKIGNKP
On to B1, for which the binding entry in assay [3] is reported as “binds”.

B2: Endothelial Differentiation Related Factor 1 (protein, UniProt O60869 1-148)
chain: MAESDWDTVTVLRKKGPTAAQAKSKQAILAAQRRGEDVETSKKWAAGQNKQHSITKNTAKLDRETEELHHDRVTLEVGKVIQQGRQSKGLTQKDLATKINEKPQVIADYESGRAIPNNQVLGKIERAIGLKLRGKDIGKPIEKGPRAK
With B2, in the assay with TRIB1-tGFP (human), the binding entry is recorded as “binds”.

B3: Tribbles Pseudokinase 1 (protein, UniProt Q96RU8 1-372)
chain: T1 sequence
Regarding B3, the binding result in assay [2] and in assay [3] was “binds” in each case.

B4: HAUS Augmin Like Complex Subunit 8 (protein, UniProt Q9BT25 1-410)
chain: MADSSGRGAGKPATGPTNSSSAKKKDKRVQGGRVIESRYLQYEKKTTQKAPAGDGSQTRGKMSEGGRKSSLLQKSKADSSGVGKGDLQSTLLEGHGTAPPDLDLSAINDKSIVKKTPQLAKTISKKPESTSFSAPRKKSPDLSEAMEMMESQTLLLTLLSVKMENNLAEFERRAEKNLLIMCKEKEKLQKKAHELKRRLLLSQRKRELADVLDAQIEMLSPFEAVATRFKEQYRTFATALDTTRHELPVRSIHLEGDGQQLLDALQHELVTTQRLLGELDVGDSEENVQVLDLLSELKDVTAKKDLELRRSFAQVLELSAEASKEAALANQEVWEETQGMAPPSRWYFNQDSACRESGGAPKNTPLSEDDNPGASSAPAQATFISPSEDFSSSSQAEVPPSLSRSGRDLS
Consider B4, for which the binding entry in assay [3] is given as “binds”.

B5: Peroxiredoxin 2 (protein, UniProt P32119 1-198)
chain: MASGNARIGKPAPDFKATAVVDGAFKEVKLSDYKGKYVVLFFYPLDFTFVCPTEIIAFSNRAEDFRKLGCEVLGVSVDSQFTHLAWINTPRKEGGLGPLNIPLLADVTRRLSEDYGVLKTDEGIAYRGLFIIDGKGVLRQITVNDLPVGRSVDEALRLVQAFQYTDEHGEVCPAGWKPGSDTIKPNVDDSKEYFSKHN
As for B5, the binding entry with TRIB1-tGFP (human) is listed as “binds”.

B6: PDGFA Associated Protein 1 (protein, UniProt Q13442 1-181)
chain: MPKGGRKGGHKGRARQYTSPEEIDAQLQAEKQKAREEEEQKEGGDGAAGDPKKEKKSLDSDESEDEEDDYQQKRKGVEGLIDIENPNRVAQTTKKVTQLDLDGPKELSRREREEIEKQKAKERYMKMHLAGKTEQAKADLARLAIIRKQREEAARKKEEERKAKDDATLSGKRMQSLSLNK
Turning to B6, the binding entry with TRIB1-tGFP (human) is recorded as “binds”.
